Like-named read-outs stand apart in the source and are kept apart here. For some of these results: The name of at least one read-out is uncertain. Some results were stated once for a whole list of compounds, not compound by compound.
Assays:
Type in all cases: in vivo
house fly = experiment: House fly control test (local application); details: 2 μg/insect applied to backs of adult female flies, 24 hours after treatment
Protocol: The inventive compounds prepared to a predetermined concentration in acetone were applied in an amount of 1 μL (per insect) to the backs of adult female flies raised indoors. Following chemical treatment, the flies were transferred to plastic cups, with five flies being placed in each cup, and held in an incubation chamber at 25° C. (16-hour period of light, 8-hour dark period). Twenty-four hours after treatment, the state of knockdown among the flies was observed, and the knockdown rate was calculated from the following formula. The test was carried out as two replications. Knockdown rate (%)=[number of knocked down insects/(number of live insects+number of knocked down insects)]×100

cotton aphid = details: first-instar larvae on cucumber leaf discs, 3 days after release
Method in brief: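 Cucumber leaf discs (2.0 cm) sprayed with compound in 50% acetone/water with 0.05% Tween 20, air-dried, then infested with first-instar cotton aphids. Held at 25 °C under 16 h light/8 h dark; mortality counted after 3 days, two replicates.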

rice leaf bug = details: 3 or 4 DAA
Protocol: The treated seedlings were air-dried, then each was placed in a glass cylinder and two second-instar rice leaf bug larvae were released within the same glass cylinder. Following release of the insects, the tube was capped and held in an incubation chamber at 25° C. (16-hour period of light, 8-hour dark period). […] Three days after released, the numbers of live and dead insects were counted, and the mortality was calculated from the following formula. Mortality (%)=[number of dead insects/(number of live insects+number of dead insects)]×100

[1] = tested on: white-backed rice planthopper; experiment: White-backed rice planthopper control test (soil drenching treatment); details: 0.05 mg/seedling soil drenching of rice seedlings, second-instar larvae, 3 days after release
brown rice planthopper = experiment: Brown rice planthopper control test (foliar application); details: 100 ppm foliar application, second-instar larvae on rice seedlings, 6 days after release
green peach aphid = experiment: Green peach aphid control test (foliar application); details: 100 ppm foliar application, first-instar larvae on cabbage leaf discs, 3 days
From the text: Leaf discs 2.8 cm in diameter were cut from cabbage plants grown in pots, and four adult aphids were released onto each disc. One day later, the adults were removed, and the number of first-instar larvae that had been deposited on each leaf disc was adjusted to 10. Next, the leaf discs parasitized by these first instar larvae were sprayed with solutions of the inventive compounds at a predetermined concentration prepared to 50% acetone/water (containing 0.05% Tween 20). The treated leaf discs were air dried, following which covers were placed over the Petri dishes and the leaf discs and larvae were held in an incubation chamber at 25° C. (16-hour period of light, 8-hour dark period). Three days after released, the numbers of live and dead insects were counted, and the mortality was calculated from the following formula. This was a two-replication test. Mortality (%)=[number of dead insects/(number of live insects+number of dead insects)]×100

[2] = tested on: Haemaphysalis longicornis; details: larval ticks, 1 day after release
western flower thrips = details: first-instar larvae on bean leaf discs, 3 days after release
Protocol: Leaf discs 2.8 cm in diameter were cut from bean plants grown in pots, and these were sprayed with solutions of the inventive compounds at a predetermined concentration prepared to 50% acetone/water (containing 0.05% Tween 20). The treated leaf discs were air dried, following which first-instar larvae were released onto the discs. The leaf discs and larvae were then held in an incubation chamber at 25° C. (16-hour period of light, 8-hour dark period). Three days after released, the numbers of live and dead insects were counted, and the mortality was calculated from the following formula. This was a two-replication test. Mortality (%)=[number of dead insects/(number of live insects+number of dead insects)]×100

rice leaf beetle = experiment: Rice leaf beetle control test (local application); details: 0.5 μg/insect local application to backs of adult beetles, 48 hours after treatment
green rice leafhopper = experiment: Green rice leafhopper control test (foliar application); details: 100 ppm foliar application, second-instar larvae on rice seedlings, 4 days after release
Protocol: Rice seedlings grown in pots were subjected to the foliar application of solutions of the inventive compounds at a predetermined concentration prepared to 50% acetone/water (containing 0.05% Tween 20). The treated seedlings were air dried, following which second-instar larvae were released onto the seedlings. The seedlings and larvae were then held in an incubation chamber at 25° C. (16-hour period of light, 8-hour dark period). Four days after released, the numbers of live and dead insects were counted, and the mortality was calculated from the following formula. This was a two-replication test. Mortality (%)=[number of dead insects/(number of live insects+number of dead insects)]×100

[3] = 10 ppm acetone solution (30 μL) dry film
[4] = 200 ppm acetone solution (30 μL) dry film

**Q.** For O=C(N=c1ccc(F)cn1Cc1ccc(Cl)nc1)C(F)(F)F [Compound 216], which Knockdown rate (house fly) is on record?
**A.** at least 80%

**Q.** What does the source list for CCOP(=O)(OCC)N(CCSC)Cc1ccc(Cl)nc1 [Compound 33]?
**A.** Knockdown rate (house fly): at least 80%; Mortality (cotton aphid; 500 ppm foliar application): at least 80%

**Q.** O=C(N=c1ccccn1Cc1ccc(F)nc1)C(F)(F)F [Compound 229, N-[1-((6-fluoropyridin-3-yl)methyl)pyridin-2(1H)-ylidene]-2,2,2-trifluoroacetamide] was tested. Which “Insecticidal effects (mortality), rice leaf bug second-instar larvae” value (“Insecticidal effects (mortality)” for short) (rice leaf bug; 2 (dose unit not given)) did it give?
**A.** 100

**Q.** And the “Insecticidal effects (mortality)” value (rice leaf bug; 10 (dose unit not given))?
**A.** 100

**Q.** What about the “Insecticidal effects (mortality)” value (rice leaf bug; 50 (dose unit not given)) of the same compound?
**A.** 100

**Q.** What about the Mortality [1] of the same compound?
**A.** at least 80%

**Q.** With CSC(=S)SCCN(C#N)Cc1ccc(Cl)nc1 [Compound 6, 2-[N-(6-chloro-3-pyridylmethyl)cyanamide] ethyl methylcarbonotrithioate] as the compound, how does the Mortality (brown rice planthopper) read?
**A.** at least 80%

**Q.** And the Mortality (green peach aphid)?
**A.** at least 80%

**Q.** What about the Mortality (cotton aphid; 20 ppm foliar application) of the same compound?
**A.** at least 80%

**Q.** And the Mortality (cotton aphid; 100 ppm foliar application)?
**A.** at least 80%

**Q.** And the Mortality (cotton aphid; 500 ppm foliar application)?
**A.** at least 80%

**Q.** And the Mortality [2, 3]?
**A.** at least 80%

**Q.** What about the Mortality [2, 4] of the same compound?
**A.** at least 80%

**Q.** What about the Mortality (western flower thrips; 100 ppm foliar application) of the same compound?
**A.** at least 80%

**Q.** And the Mortality (western flower thrips; 200 ppm foliar application)?
**A.** at least 80%

**Q.** How did the Knockdown rate (house fly) turn out when O=C(N=c1ccccn1Cc1ccc(Cl)nc1)C(F)(F)F [Compound 212, N-[1-((6-chloropyridin-3-yl)methyl)pyridin-2(1H)-ylidene]-2,2,2-trifluoroacetamide] was run?
**A.** at least 80%

**Q.** What about the “Insecticidal effects (mortality)” value (rice leaf bug; 2 (dose unit not given)) of the same compound?
**A.** 100

**Q.** And the “Insecticidal effects (mortality)” value (rice leaf bug; 10 (dose unit not given))?
**A.** 100

**Q.** And the “Insecticidal effects (mortality)” value (rice leaf bug; 50 (dose unit not given))?
**A.** 100

**Q.** And the Mortality [2, 3]?
**A.** at least 80%

**Q.** And the Mortality [2, 4]?
**A.** at least 80%

**Q.** What about the Mortality (rice leaf beetle) of the same compound?
**A.** at least 80%

**Q.** What about the Mortality [1] of the same compound?
**A.** at least 80%

**Q.** What does the source list for CCCSC(=S)SCCN(C#N)Cc1ccc(Cl)nc1 [Compound 8]?
**A.** Mortality (brown rice planthopper): at least 80%; Mortality (green peach aphid): at least 80%; Mortality (cotton aphid; 20 ppm foliar application): at least 80%; Mortality (cotton aphid; 100 ppm foliar application): at least 80%; Mortality (cotton aphid; 500 ppm foliar application): at least 80%; Mortality [2, 3]: at least 80%; Mortality [2, 4]: at least 80%; Mortality (rice leaf beetle): at least 80%; Mortality (western flower thrips; 100 ppm foliar application): at least 80%; Mortality (western flower thrips; 200 ppm foliar application): at least 80%

**Q.** How did the Knockdown rate (house fly) turn out when O=C(N=c1ccccn1Cc1cnc(Cl)s1)C(F)(F)F [Compound 213] was run?
**A.** at least 80%

**Q.** How did the “Insecticidal effects (mortality)” value (rice leaf bug; 2 (dose unit not given)) turn out when O=C(N=c1ccccn1Cc1cnc(Cl)c(F)c1)C(F)(F)F [Compound 227, N-[1-((6-chloro-5-fluoropyridin-3-yl)methyl)pyridin-2(1H)-ylidene]-2,2,2-trifluoroacetamide] was run?
**A.** 83

**Q.** What about the “Insecticidal effects (mortality)” value (rice leaf bug; 10 (dose unit not given)) of the same compound?
**A.** 100

**Q.** What about the “Insecticidal effects (mortality)” value (rice leaf bug; 50 (dose unit not given)) of the same compound?
**A.** 100

**Q.** What about the Mortality [1] of the same compound?
**A.** at least 80%

**Q.** Which “Insecticidal effects (mortality)” value (rice leaf bug; 50 (dose unit not given)) does the source give for O=C(N=c1ccccn1Cc1ccc(Br)nc1)C(F)(F)F [Compound 231, N-[1-((6-bromopyridin-3-yl)methyl)pyridin-2(1H)-ylidene]-2,2,2-trifluoroacetamide] here?
**A.** 100

**Q.** What about the Mortality [1] of the same compound?
**A.** at least 80%

**Q.** For CSCCN(C#N)Cc1ccc(Cl)nc1 [Compound 1, 2-chloro-5-[N-cyano-N-(2-methylthioethyl)]aminomethylpyridine], which Mortality (brown rice planthopper) is on record?
**A.** at least 80%

**Q.** And the Mortality (green peach aphid)?
**A.** at least 80%

**Q.** And the Mortality (cotton aphid; 20 ppm foliar application)?
**A.** at least 80%

**Q.** What about the Mortality (cotton aphid; 100 ppm foliar application) of the same compound?
**A.** at least 80%

**Q.** And the Mortality (cotton aphid; 500 ppm foliar application)?
**A.** at least 80%

**Q.** What about the Mortality [2, 3] of the same compound?
**A.** at least 80%

**Q.** What about the Mortality [2, 4] of the same compound?
**A.** at least 80%

**Q.** And the Mortality (rice leaf beetle)?
**A.** at least 80%

**Q.** What about the Mortality (western flower thrips; 200 ppm foliar application) of the same compound?
**A.** at least 80%

**Q.** What about the Mortality (green rice leafhopper) of the same compound?
**A.** at least 80%

**Q.** With COC(=O)N=c1ccccn1Cc1ccc(Cl)nc1 [Compound 214] as the compound, how does the Knockdown rate (house fly) read?
**A.** at least 80%

**Q.** Which Mortality (brown rice planthopper) does the source give for CCSC(=S)SCCN(C#N)Cc1ccc(Cl)nc1 [Compound 7] here?
**A.** at least 80%

**Q.** What about the Mortality (green peach aphid) of the same compound?
**A.** at least 80%

**Q.** What about the Mortality (cotton aphid; 20 ppm foliar application) of the same compound?
**A.** at least 80%

**Q.** What about the Mortality (cotton aphid; 100 ppm foliar application) of the same compound?
**A.** at least 80%

**Q.** And the Mortality (cotton aphid; 500 ppm foliar application)?
**A.** at least 80%

**Q.** What about the Mortality [2, 3] of the same compound?
**A.** at least 80%

**Q.** What about the Mortality [2, 4] of the same compound?
**A.** at least 80%

**Q.** And the Mortality (western flower thrips; 100 ppm foliar application)?
**A.** at least 80%

**Q.** What about the Mortality (western flower thrips; 200 ppm foliar application) of the same compound?
**A.** at least 80%
